Reference: paper PMC3540032, “Comprehensive Analysis and Identification of the Human STIM1 Domains for Structural and Functional Studies” (PLoS ONE, 2013)
These are yes or no findings as the source states them, for the method shown.

Biological target: Orai1 C-terminal peptide with an extra N-terminal Cys
Assay: SPR; Biacore T200; Orai1 peptide immobilised on a CM5 chip by ligand thiol coupling at 1000 RU; analytes injected at 10 µM; HBS-EP buffer (20 mM HEPES, pH 7.4, 150 mM NaCl, 3.4 mM EDTA, 0.005% Polysorbate 20), 30 µL/min; both purified

binding: no binding (tested: approximately 10 µM)
Substance: Lysozyme (from UniProt P00698 19-147) (enzyme)
